Results taken from PMC5479843.
No constants are given. Whether binding was seen depends on the method and setting.

Molecular target: T1, MYOTIg1-2 (Ig1-2 domains of human myotilin, residues 250-444) (human), Q9UBF9
T1 chain: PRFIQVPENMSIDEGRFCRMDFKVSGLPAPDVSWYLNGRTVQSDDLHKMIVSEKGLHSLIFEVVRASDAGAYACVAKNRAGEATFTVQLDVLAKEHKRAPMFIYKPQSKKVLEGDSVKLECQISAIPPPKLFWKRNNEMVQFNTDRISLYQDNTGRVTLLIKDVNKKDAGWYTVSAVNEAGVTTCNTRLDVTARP
Assay: SAXS; MYOTIg1-2 at 3.67, 7.00 and 14.12 mg/mL in 20 mM Na-HEPES, 150 mM NaCl, 5 % glycerol, 1 mM DTT, pH 7.4; curve extrapolated to zero concentration; molecular weight calculated from I0 and Porod volume; both purified
Conditions: remark: other sources report otherwise

binding: no binding (tested: 14.12 mg/mL)
B1: MYOTIg1-2 (Ig1-2 domains of human myotilin, residues 250-444), Q9UBF9 250-444 (domain or fragment)
chain: T1 chain
